According to patent US5128398A, “Phenolic compound and its use as stabilizer for butadiene polymer” (Sumitomo Chemical Company, Limited, priority 1987, dated 1992):

Columns and labels:
[1] = Gelation time of polybutadiene rubber in Laboplastmill kneading test under nitrogen (torque peak); conditions: 180° C.
[2] = Degree of discoloration of polybutadiene rubber after high temperature preparation process (naked eye); set-up: key: .largecircle.: No discoloration; Δ: Discoloration in light yellow; X: Discoloration in yellow; conditions: flash distillation 190°-200° C., nitrogen
[3] = Degree of discoloration of stranded styrene-butadiene block copolymer after high temperature processing (visual); set-up: key: .largecircle.: No discoloration; Δ: Discoloration in light yellow; X: Discoloration in yellow; conditions: strand, cylinder 230°-260° C.
[4] = loading 0.2 part by weight per 100 parts polybutadiene
[5] = loading 0.4 part by weight per 100 parts polybutadiene
[6] = loading 0.2 part by weight per 100 parts block copolymer
[7] = loading 0.4 part by weight per 100 parts block copolymer
[8] = loading 0.8 part by weight per 100 parts polybutadiene
[9] = loading 0.8 part by weight per 100 parts block copolymer

| SMILES | Gelation time [1, 4] [min] | Gelation time [1, 5] [min] | Degree of discoloration [2, 4] | Degree of discoloration [2, 5] | Degree of discoloration [3, 6] | Degree of discoloration [3, 7] | Gelation time [1, 8] [min] | Degree of discoloration [2, 8] | Degree of discoloration [3, 9] |
| --- | --- | --- | --- | --- | --- | --- | --- | --- | --- |
| C=CC(=O)Oc1c(C(C)c2cc(C(C)(C)CC)cc(C(C)(C)CC)c2O)cc(C(C)(C)CC)cc1C(C)(C)CC (centres unmarked) [II-1, 2,4-di-t-amyl-6-[1-(3,5-di-t-amyl-2-hydroxyphenyl)ethyl]phenyl acrylate] | 47 | 71 | .largecircle. | .largecircle. | .largecircle. | .largecircle. | – | – | – |
| C=CC(=O)Oc1c(Cc2cc(C)cc(C(C)(C)C)c2O)cc(C)cc1C(C)(C)C [AO-1, 2-t-Butyl-6-(3-t-butyl-2-hydroxy-5-methylbenzyl)-4-methylphenyl acrylate] | – | 31 | – | Δ | – | Δ | 42 | X | X |
| C=C(C)C(=O)Oc1c(C(C)c2cc(C(C)(C)CC)cc(C(C)(C)CC)c2O)cc(C(C)(C)CC)cc1C(C)(C)CC (centres unmarked) [II-2, 2,4-di-t-amyl-6-[1--(3,5-di-t-amyl-2-hydroxyphenyl)ethyl]phenyl methacrylate] | 43 | 68 | .largecircle. | .largecircle. | .largecircle. | .largecircle. | – | – | – |
| Cc1cc(C(C)(C)C)c(O)c(C(C)(C)C)c1 [AO-3, 2,6-Di-t-butyl-4-methylphenol] | – | 10 | – | – | – | – | 14 | – | – |
| C=CC(=O)Oc1c(C(C)c2cc(C(C)(C)C)cc(C(C)(C)C)c2O)cc(C(C)(C)C)cc1C(C)(C)C (centres unmarked) [AO-2, 2,4-Di-t-butyl-6-[1-(3,5-di-t-butyl-2-hydroxyphenyl)ethyl]phenyl acrylate] | 45 | 67 | .largecircle. | .largecircle. | .largecircle. | .largecircle. | – | – | – |
| CCCCCCCCCCCCCCCCCCOC(=O)CCc1cc(C(C)(C)C)c(O)c(C(C)(C)C)c1 [AO-4, n-Octadecyl 3-(3,5-di-t-butyl-4-hydroxyphenyl)propionate] | – | 8 | – | .largecircle. | – | .largecircle. | 13 | .largecircle. | .largecircle. |
